Our source for the binding values is PMC13385800 (2026).

Sequences of proteins named here, by UniProt entry; tags and fusion partners are left off.
UniProt O15379: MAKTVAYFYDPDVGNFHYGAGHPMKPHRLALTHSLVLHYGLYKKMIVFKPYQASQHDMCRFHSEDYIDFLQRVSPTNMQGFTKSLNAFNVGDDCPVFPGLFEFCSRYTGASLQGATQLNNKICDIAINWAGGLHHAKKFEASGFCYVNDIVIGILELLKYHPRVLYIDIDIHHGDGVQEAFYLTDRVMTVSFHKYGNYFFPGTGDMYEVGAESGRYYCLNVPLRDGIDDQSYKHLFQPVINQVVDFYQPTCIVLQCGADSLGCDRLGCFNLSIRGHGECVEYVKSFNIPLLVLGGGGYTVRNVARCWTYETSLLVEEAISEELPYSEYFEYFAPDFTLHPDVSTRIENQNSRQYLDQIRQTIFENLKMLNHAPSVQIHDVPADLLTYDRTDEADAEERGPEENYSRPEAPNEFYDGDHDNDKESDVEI

Results are given in words; binding and its absence hold for the method and conditions named. Binding seen in cells or lysates may run through a third protein.

One experiment has as its target T1, mCherry-SETD5 1–486 (UniProt Q9C0A6).
T1 sequence: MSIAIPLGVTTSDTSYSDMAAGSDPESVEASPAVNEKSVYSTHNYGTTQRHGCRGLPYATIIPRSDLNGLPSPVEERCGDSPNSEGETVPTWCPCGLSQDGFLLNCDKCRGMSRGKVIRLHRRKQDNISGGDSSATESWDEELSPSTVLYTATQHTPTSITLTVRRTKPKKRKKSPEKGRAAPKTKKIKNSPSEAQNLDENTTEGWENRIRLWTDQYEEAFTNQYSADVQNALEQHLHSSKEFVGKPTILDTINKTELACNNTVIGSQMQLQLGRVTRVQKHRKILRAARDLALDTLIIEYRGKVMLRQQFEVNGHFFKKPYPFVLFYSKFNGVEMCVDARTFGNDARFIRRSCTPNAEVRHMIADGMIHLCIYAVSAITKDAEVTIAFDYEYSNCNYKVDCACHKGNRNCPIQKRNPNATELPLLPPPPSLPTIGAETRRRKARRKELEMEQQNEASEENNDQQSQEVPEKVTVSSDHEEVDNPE
In words: co-IP; GFP trap or RFP trap IP of transfected EGFP- or mCherry-tagged constructs from extracts of Flp-In T-REx 293 lines carrying integrated wild-type or mutant TBLR1; 30-60 min at 4 degrees, four washes in NE10 with 150 mM NaCl; western blot. On the technique in general: A western blot detects proteins with antibodies after separation by electrophoresis.

A further experiment has as its target T2, mCherry-SETD5 1–223 (UniProt Q9C0A6).
T2 sequence: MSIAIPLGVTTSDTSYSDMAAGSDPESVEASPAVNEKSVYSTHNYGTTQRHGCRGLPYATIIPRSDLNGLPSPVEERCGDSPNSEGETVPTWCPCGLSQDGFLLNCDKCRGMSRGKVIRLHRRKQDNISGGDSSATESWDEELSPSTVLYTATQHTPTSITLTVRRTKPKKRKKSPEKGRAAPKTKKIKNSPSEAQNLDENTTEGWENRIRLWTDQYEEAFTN
Described as above.

As to “endogenous HDAC3 of Flp-In T-REx 293 cells (from UniProt O15379 1-428)”, the binding entry with mCherry-SETD5 1–486 and in the experiment with mCherry-SETD5 1–223 was “no binding” each time.
